Assay results published in article PMC10699508.
No constants are given. Whether binding was seen depends on the method and setting. In cells and extracts the contact can be indirect. Some binding calls cover weakened binding; strength is not graded here.

Sequences of proteins named here, by UniProt entry; tags and fusion partners are left off. A change or cut given only in a name is not applied to a line headed by its entry. A line that says so, or that is headed by a name, gives the form on record, which may keep a tag or linker.
UniProt P11802: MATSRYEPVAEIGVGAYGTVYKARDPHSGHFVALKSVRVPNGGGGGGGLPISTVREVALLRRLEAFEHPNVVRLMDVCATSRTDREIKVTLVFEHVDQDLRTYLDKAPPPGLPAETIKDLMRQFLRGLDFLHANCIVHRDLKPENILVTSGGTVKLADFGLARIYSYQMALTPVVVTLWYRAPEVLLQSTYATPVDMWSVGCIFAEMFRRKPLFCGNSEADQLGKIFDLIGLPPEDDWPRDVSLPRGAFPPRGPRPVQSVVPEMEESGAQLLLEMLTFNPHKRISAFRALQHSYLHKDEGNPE
UniProt P30281: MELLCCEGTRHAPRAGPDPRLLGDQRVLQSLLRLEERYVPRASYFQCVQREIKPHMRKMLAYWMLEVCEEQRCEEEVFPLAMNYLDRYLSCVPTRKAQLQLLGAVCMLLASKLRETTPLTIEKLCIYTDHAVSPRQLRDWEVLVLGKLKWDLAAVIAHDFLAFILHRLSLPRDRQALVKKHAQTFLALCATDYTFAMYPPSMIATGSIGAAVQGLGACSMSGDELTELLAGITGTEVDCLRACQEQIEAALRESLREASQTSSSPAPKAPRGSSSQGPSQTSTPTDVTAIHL
UniProt P24385: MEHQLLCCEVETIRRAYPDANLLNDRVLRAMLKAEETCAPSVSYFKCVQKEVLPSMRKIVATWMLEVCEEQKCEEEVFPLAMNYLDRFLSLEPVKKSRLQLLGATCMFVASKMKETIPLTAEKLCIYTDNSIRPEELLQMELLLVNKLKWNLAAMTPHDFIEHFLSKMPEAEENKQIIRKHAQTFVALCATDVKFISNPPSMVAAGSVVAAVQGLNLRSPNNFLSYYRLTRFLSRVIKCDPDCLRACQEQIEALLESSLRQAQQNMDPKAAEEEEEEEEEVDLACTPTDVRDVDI
cyclin D1 single mutant of C7 (C8 present) (P24385, form named): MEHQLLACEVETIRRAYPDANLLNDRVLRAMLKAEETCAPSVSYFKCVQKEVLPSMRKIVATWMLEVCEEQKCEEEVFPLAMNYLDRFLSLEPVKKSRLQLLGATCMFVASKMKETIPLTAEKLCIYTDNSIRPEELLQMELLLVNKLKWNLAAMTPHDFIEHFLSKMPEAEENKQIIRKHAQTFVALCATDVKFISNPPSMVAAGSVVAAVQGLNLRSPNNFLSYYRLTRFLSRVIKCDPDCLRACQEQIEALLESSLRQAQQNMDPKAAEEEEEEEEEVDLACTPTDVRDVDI
cyclin D1 single mutant of C8 (C7 present) (P24385, form named): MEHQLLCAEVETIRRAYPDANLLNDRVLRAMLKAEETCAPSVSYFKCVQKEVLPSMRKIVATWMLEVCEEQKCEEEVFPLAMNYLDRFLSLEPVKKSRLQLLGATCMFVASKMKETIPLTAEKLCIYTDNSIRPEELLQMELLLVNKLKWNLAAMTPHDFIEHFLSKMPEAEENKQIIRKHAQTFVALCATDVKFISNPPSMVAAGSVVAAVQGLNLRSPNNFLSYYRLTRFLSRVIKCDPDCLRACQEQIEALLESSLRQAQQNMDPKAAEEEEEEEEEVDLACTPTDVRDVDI

Columns and labels:
WT CDK4-FLAG [1] = target: WT CDK4-FLAG (UniProt P11802); test: cross-linking; CDK4-FLAG and cyclin D1-HA or cyclin D3-HA (WT or cysteine mutants) overexpressed in HPASMCs, H2O2 for 15 minutes (200 µM in the comparison); disulfide dimer by nonreducing immunoblot
[2] = target: CDK4 (cyclin-dependent kinase 4) (human (endogenous in HPASMCs and HPAECs)) (UniProt P11802); test: cross-linking; oxidant-induced intermolecular disulfide of endogenous proteins in HPASMCs (H2O2 15 min; also UV, auranofin, serum synchronisation; donor and IPAH cells); lysis in nonreducing sample buffer with 100 mmol/L maleimide; nonreducing immunoblot, complex at ≈75 kDa
[3] = target: CDK4 (cyclin-dependent kinase 4) (human (endogenous in HPASMCs and HPAECs)) (UniProt P11802); test: cross-linking; oxidant-induced intermolecular disulfide of endogenous proteins in human pulmonary arterial endothelial cells treated with H2O2; nonreducing immunoblot
C78A CDK4-FLAG [4] = target: C78A CDK4-FLAG (UniProt P11802); test: cross-linking; data not shown: disulfide formation (redox activity) of CDK4 cysteine to alanine mutants
CDK4 C202A = CDK4 C202A (UniProt P11802); test: as above
C135S CDK4-FLAG = C135S CDK4-FLAG (UniProt P11802); test: co-IP; CDK4-FLAG (WT or mutant) and WT cyclin D1-HA overexpressed and coimmunoprecipitated from HAP1 CDK4 KO cells (WT also from HPASMCs), then used in a kinase assay
WT CDK4-FLAG [5] = target: WT CDK4-FLAG (UniProt P11802); test: as above
C78A CDK4-FLAG [6] = target: C78A CDK4-FLAG (UniProt P11802); test: as above
C135A CDK4-FLAG = C135A CDK4-FLAG (UniProt P11802); test: as above

Substance | binding (WT CDK4-FLAG [1]) | binding [2] | binding [3] | other results
WT cyclin D3-HA (from UniProt P30281 1-292) | binds |  |  | 
cyclin D1 single mutant of C7 (C8 present) (from UniProt P24385 1-295) | binds |  |  | 
cyclin D3 (from UniProt P30281 1-292) |  | binds | binds | 
cyclin D1 (from UniProt P24385 1-295) |  | binds | binds | 
WT cyclin D1-HA (from UniProt P24385 1-295) | binds |  |  | binding (C78A CDK4-FLAG [4]): binds; binding (CDK4 C202A): binds; binding (C135S CDK4-FLAG): binds; binding (WT CDK4-FLAG [5]): binds; binding (C78A CDK4-FLAG [6]): binds; binding (C135A CDK4-FLAG): binds
cyclin D1 single mutant of C8 (C7 present) (from UniProt P24385 1-295) | binds |  |  | 
